This passage reports binding signal results from publication PMC7819943, “Rice protein-binding microarrays: a tool to detect cis-acting elements near promoter regions in rice”.

Sequences of proteins named here, by UniProt entry; tags and fusion partners are left off.
UniProt Q0JBA9, entry or part of it: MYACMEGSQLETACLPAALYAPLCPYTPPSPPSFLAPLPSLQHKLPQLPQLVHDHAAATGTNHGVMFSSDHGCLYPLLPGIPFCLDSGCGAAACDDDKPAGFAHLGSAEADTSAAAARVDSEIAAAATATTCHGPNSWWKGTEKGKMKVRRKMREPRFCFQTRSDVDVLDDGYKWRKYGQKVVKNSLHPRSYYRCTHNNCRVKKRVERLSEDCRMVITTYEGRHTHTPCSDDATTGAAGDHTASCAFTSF

The list shows a part of the results.

This experiment has as its target OsWRKY34 (Oryza sativa, UniProt Q0JBA9 1-250). As to the kind of experiment: protein-binding microarray (RPBM); PBS, 2% BSA, 51.3 ng/ul salmon testes DNA, 50 uM zinc acetate, 200 nM TF, 25 C, 1 h; high values mean tight binding. The note with it: protein: recombinant; tags: N-terminal polyhistidine and DsRed monomer fusion (pET32a); label: CyDye5-dUTP incorporated in the synthesized complementary strand; 3' TTTTT single-stranded linker to array surface; dsDNA, one strand shown. A digest of the protocol:
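Transcription factors were each fused at the N-terminus to a polyhistidine tag plus DsRed and expressed in E. coli BL21-CodonPlus before Ni–NTA purification. Binding to a double-stranded custom Agilent array was carried out with 200 nM protein at 25 °C for 1 h in PBS, 2% BSA, salmon testes DNA and 50 µM zinc acetate. The binding signal is per-feature fluorescence intensity, in arbitrary units, on an Axon 4000B scanner.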
With “GTTCGATATTTGAAATTTCCCCATCCGAAATTTTCTCTTCCGGAGTCACCTAGTGCAG”, the binding signal is 9230 fluorescence intensity (a.u.).
For the sequence “ATGCCCATTTTGTAGCGTCGATTCTTGTTTCTGCTTGATTCGGAGTCACCTAGTGCAG”, the binding signal was 10300 fluorescence intensity (a.u.).
Regarding “CACCAATAAGTAATGTGAGCTGGGTTTCATTTTTGTACTTCGGAGTCACCTAGTGCAG”, the binding signal was 8450 fluorescence intensity (a.u.).
Regarding “TCAGAGCCTGTTTTTGTTGTTGTTCTCACTTTTTGCTTCACGGAGTCACCTAGTGCAG”, the binding signal is 9030 fluorescence intensity (a.u.).
The result for “ATTATTTTTTCAGTGATAGACGGTGTACCCGCCACCGACACGGAGTCACCTAGTGCAG” reads 8110 fluorescence intensity (a.u.); that for “CAACTACCTCCTTTTTCCGTGAGTCCAATTTCTAAATTACCGGAGTCACCTAGTGCAG”, 9370 fluorescence intensity (a.u.).
The result for “TCATGAGCTACTGTCCTCATCACGGTCGCCGTCGTCTTCCCGGAGTCACCTAGTGCAG” reads 11800 fluorescence intensity (a.u.); that for “TAAACCACTTTCTCCGGTCAAACACTCCGTCCCCACCTATCGGAGTCACCTAGTGCAG”, 9870 fluorescence intensity (a.u.).
The result for “TTTTTTTTCCCTTCTTCTCCGCGCGCGTGTTCTCCTCGATCGGAGTCACCTAGTGCAG” reads 8860 fluorescence intensity (a.u.).
“TGTTGGCTCTTCACATGTACAATGTGACATCTCCTTTCACCGGAGTCACCTAGTGCAG”: the binding signal is 8680 fluorescence intensity (a.u.).
In the case of “GCGTTTGCCAGCCGGCCGCCTGCCATTGTGCCTTTCTGCGCGGAGTCACCTAGTGCAG”, the binding signal is 9920 fluorescence intensity (a.u.).
The result for “GGGGTGTAGGAGGGTTATGGAGGAGGCCTGAACTGAATTTCGGAGTCACCTAGTGCAG” reads 8780 fluorescence intensity (a.u.); that for “ACCACTCACCCTTCTCAATATATACTCTAGCTCCGCCCTGCGGAGTCACCTAGTGCAG”, 8140 fluorescence intensity (a.u.).
On to “GAGGTGGGTGGTCCGAAGTCCGAAACCCTATCATGCATGCCGGAGTCACCTAGTGCAG”, for which the binding signal was 8210 fluorescence intensity (a.u.).
As to “TGGTGCCATGTCCGTGCATTCACAGCAGTGTTTGTTATTCCGGAGTCACCTAGTGCAG”, the binding signal is 8440 fluorescence intensity (a.u.).
As for “GAATTTCATTGTGCCGCATTCTTATGGAGCTTTACGTTGTCGGAGTCACCTAGTGCAG”, the binding signal was 8100 fluorescence intensity (a.u.).
The result for “CTTTTCGATTGAATGACTAGGTGTTTTGTGTTAATCTTGTCGGAGTCACCTAGTGCAG” reads 9610 fluorescence intensity (a.u.); that for “TCAATAACCTTAACTGCCAACATTTTATCTTTACTTTTTTCGGAGTCACCTAGTGCAG”, 8160 fluorescence intensity (a.u.).
The result for “TTCTGCGATCCGCCTGTTTAGGTCCTCGCTGTCCACCAAACGGAGTCACCTAGTGCAG” reads 9620 fluorescence intensity (a.u.); that for “AACACTAGTCCAAGTTTTTTCGGTATAACTACATCCTCCACGGAGTCACCTAGTGCAG”, 8080 fluorescence intensity (a.u.); that for “TCCTCTGTTTACTTATATATAATAGACCTGCTTTTGTAGCCGGAGTCACCTAGTGCAG”, 8900 fluorescence intensity (a.u.).
The result for “AACCTGTACTCTTCTTGCTCGCGTTCGCGTATATATCCCTCGGAGTCACCTAGTGCAG” reads 15200 fluorescence intensity (a.u.); that for “GCAGTTTATTTTGGTCAGATTGTTGTTGTGTGCTATTTTACGGAGTCACCTAGTGCAG”, 14800 fluorescence intensity (a.u.); that for “AATACACGATTTTAAGGGTTTTCTGGGGCTAATCTTTTTTCGGAGTCACCTAGTGCAG”, 11400 fluorescence intensity (a.u.).
On to “CCTCCTCGCCGTGCTCCTCACACCGCACCACACCACGTCTCGGAGTCACCTAGTGCAG”, for which the binding signal is 11600 fluorescence intensity (a.u.).
The result for “ATAATTAGTCGTGTGCATCACCGTCATCTGGTATCTCTTGCGGAGTCACCTAGTGCAG” reads 9560 fluorescence intensity (a.u.); that for “TACCGCTCCCATCCCACGGCTACCATCCATCACCATGATCCGGAGTCACCTAGTGCAG”, 8080 fluorescence intensity (a.u.).
The result for “TCTCGATCGCATCCAGCCTCATCAACTCCACTTCTCACACCGGAGTCACCTAGTGCAG” reads 11300 fluorescence intensity (a.u.); that for “AACTTCGACACAATCTTTAAGATACTACTTTGACCAACAACGGAGTCACCTAGTGCAG”, 8220 fluorescence intensity (a.u.).
The result for “TCAATCCCCGCCATTAATACCTTTGACTTTTTTTTAAAAACGGAGTCACCTAGTGCAG” reads 9530 fluorescence intensity (a.u.); that for “ACTCCTTATCCCATACACACACAATCTCCCTATCATATGCCGGAGTCACCTAGTGCAG”, 8630 fluorescence intensity (a.u.); that for “CGCTCCTCGCCGCCTTGAACCTCACAGCGAAACCTGATCACGGAGTCACCTAGTGCAG”, 8600 fluorescence intensity (a.u.).
Take “CTCTTTCTCTCTCTTCTTCTTCTCTCAAAGGTTGAGGAGACGGAGTCACCTAGTGCAG”: the binding signal was 8150 fluorescence intensity (a.u.).
Turning to “CCACACCACAGTCGCCTCTCTCCTCTTTCACCGAGAAGCGCGGAGTCACCTAGTGCAG”, the binding signal is 8150 fluorescence intensity (a.u.).
The result for “CTACTTTACCAGCTCATCTATCACATCTTAACTGTATTTTCGGAGTCACCTAGTGCAG” reads 10300 fluorescence intensity (a.u.); that for “ATCCATGGGCCTCGTTGGTTATAGCCTGTGTGCATCAACACGGAGTCACCTAGTGCAG”, 8230 fluorescence intensity (a.u.).
With “GCTGTTTCCTGGAGGTTCCATCCATGCTATCCTGTGCTCGCGGAGTCACCTAGTGCAG”, the binding signal is 8470 fluorescence intensity (a.u.).
In the case of “CTTTTGATTGTTCGTTTTGCTATGATTTTGTTCAAGTTAACGGAGTCACCTAGTGCAG”, the binding signal was 9180 fluorescence intensity (a.u.).
On to “GTGTTTTTTCTATTCCTCTGTTTTTTCTACCCTGCGATTTCGGAGTCACCTAGTGCAG”, for which the binding signal is 10700 fluorescence intensity (a.u.).
The result for “GCAGCAGCACTCGCCACTGTTCTTTCTTTCTCTCTTTCTCCGGAGTCACCTAGTGCAG” reads 9580 fluorescence intensity (a.u.).
The result for “CCTAAGACATCCATCATATGATGATCATGGCATCCCGCATCGGAGTCACCTAGTGCAG” reads 9170 fluorescence intensity (a.u.).
As for “AGTACATAATTTATTTTCATTTTACATCATATACTATGTACGGAGTCACCTAGTGCAG”, the binding signal is 8130 fluorescence intensity (a.u.).
